These are yes or no findings as the source states them, for the method shown. In cells and extracts the contact can be indirect. Some results given as binding are weak or reduced against the parent protein; the word gives no strength.
Biological target: integrin very late antigen-4 (VLA-4, composed of α4β1 subunits) (UniProt P13612)
Assay: co-immunoprecipitation from B-ALL cell lysates

The chains behind the UniProt entries cited, without tags or fusion partners. Where a name states a change or a piece, a line headed by the entry shows the natural chain unless it says otherwise.
UniProt P13612: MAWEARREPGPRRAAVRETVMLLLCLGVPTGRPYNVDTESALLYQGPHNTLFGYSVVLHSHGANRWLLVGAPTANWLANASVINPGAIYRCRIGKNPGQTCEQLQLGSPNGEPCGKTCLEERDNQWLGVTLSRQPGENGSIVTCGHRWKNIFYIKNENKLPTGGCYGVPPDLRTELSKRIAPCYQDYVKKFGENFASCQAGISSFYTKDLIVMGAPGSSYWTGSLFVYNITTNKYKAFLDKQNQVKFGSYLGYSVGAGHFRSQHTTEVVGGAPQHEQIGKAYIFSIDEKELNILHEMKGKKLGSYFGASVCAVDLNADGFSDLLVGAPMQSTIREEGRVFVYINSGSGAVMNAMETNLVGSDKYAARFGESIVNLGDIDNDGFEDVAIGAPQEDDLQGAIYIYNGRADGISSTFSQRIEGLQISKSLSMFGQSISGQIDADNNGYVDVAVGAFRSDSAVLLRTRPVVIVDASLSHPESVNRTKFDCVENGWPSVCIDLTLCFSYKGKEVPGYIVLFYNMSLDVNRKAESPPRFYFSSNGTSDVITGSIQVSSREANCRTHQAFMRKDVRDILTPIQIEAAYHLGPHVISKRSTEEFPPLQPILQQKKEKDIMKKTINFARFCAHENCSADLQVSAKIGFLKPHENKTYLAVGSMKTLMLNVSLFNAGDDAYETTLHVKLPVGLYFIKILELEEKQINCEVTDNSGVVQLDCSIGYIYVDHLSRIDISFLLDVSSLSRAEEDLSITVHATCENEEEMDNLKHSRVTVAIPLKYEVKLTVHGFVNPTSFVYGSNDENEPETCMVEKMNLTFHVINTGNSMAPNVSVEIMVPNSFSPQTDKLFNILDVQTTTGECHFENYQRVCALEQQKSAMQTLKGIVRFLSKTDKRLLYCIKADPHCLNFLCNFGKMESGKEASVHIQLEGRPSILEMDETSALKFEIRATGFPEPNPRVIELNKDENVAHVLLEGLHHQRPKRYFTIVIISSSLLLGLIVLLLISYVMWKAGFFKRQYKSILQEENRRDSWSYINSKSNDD
UniProt P21926: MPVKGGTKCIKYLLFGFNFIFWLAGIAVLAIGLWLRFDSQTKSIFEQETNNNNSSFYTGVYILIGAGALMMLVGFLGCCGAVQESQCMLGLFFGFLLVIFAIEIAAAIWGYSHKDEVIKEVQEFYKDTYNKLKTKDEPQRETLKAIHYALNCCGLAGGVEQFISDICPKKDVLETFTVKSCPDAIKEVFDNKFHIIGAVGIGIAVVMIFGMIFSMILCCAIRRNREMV

For “human CD9 protein (from UniProt P21926 2-228)”, the binding was “binds”.

Source: patent US20180038865A1, “CD9 AS A THERAPEUTIC TARGET FOR HEMATOLOGIC MALIGNANCIES” (The Chinese and Knowledge Transfer Services, priority 2016, published 2018)
